Measurements as given in article PMC8583208.
Results are given in words; binding and its absence hold for the method and conditions named. A result given as binding can be weak or reduced; the word gives no strength.

By UniProt entry, the sequences of proteins in these tests, tags left out.
UniProt Q8LFJ6: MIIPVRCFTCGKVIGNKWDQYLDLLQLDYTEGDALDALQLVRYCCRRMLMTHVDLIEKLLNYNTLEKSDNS

Experiments:
[1] = target: T1, Arabidopsis RNA polymerase III subunit NRPC2 (Arabidopsis thaliana) (UniProt F4KD38); test: two-hybrid; CDS of the RNAPIII subunits in pGBKT7 (yeast strain Y2HGold) and in pGADT7 (yeast strain Y187); growth at three dilutions on SD medium lacking Trp, Leu, His and Ade, with SD lacking Trp and Leu as control
T1 sequence: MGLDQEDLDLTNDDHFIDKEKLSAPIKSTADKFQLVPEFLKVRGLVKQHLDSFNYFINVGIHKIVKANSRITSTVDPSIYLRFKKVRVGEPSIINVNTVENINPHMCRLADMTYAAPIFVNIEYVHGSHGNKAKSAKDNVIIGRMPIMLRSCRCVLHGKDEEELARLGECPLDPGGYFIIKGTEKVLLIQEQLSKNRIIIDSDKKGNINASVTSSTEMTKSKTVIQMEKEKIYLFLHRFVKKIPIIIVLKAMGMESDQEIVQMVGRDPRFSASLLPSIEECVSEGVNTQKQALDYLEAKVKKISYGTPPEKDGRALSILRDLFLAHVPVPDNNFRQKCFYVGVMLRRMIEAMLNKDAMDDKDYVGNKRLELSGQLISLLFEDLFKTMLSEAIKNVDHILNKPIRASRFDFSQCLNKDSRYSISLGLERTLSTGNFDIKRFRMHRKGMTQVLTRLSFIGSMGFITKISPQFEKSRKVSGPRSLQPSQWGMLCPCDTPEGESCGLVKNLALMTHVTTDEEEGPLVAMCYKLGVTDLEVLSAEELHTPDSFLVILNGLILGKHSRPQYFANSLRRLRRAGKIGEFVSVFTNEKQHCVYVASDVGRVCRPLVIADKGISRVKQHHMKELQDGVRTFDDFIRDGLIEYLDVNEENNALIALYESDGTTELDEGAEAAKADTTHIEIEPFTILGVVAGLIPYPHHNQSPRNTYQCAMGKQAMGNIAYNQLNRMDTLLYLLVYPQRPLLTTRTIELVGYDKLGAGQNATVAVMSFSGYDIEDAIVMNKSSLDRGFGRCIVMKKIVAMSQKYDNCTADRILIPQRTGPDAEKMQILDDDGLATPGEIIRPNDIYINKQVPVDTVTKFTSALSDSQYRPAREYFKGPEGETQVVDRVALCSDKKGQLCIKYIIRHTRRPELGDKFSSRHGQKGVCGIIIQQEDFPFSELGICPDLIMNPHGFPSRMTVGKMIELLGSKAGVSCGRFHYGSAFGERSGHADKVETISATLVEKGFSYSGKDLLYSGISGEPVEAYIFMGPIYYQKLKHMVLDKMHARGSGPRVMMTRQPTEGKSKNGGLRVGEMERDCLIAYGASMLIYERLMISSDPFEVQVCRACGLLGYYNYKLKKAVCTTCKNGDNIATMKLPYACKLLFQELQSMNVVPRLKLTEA

[2] = target: Arabidopsis RNA polymerase III subunit NRPC3 (Arabidopsis thaliana) (UniProt F4IWP6); test: as above

binding [1] | binding [2] | Substance
binds | – | Arabidopsis RNA polymerase III subunit NRPC8
binds | – | Arabidopsis RNA polymerase subunit NRPABC3
binds | – | Arabidopsis RNA polymerase III subunit NRPC10
– | binds | Arabidopsis RNA polymerase subunit NRPABC5 (from UniProt Q8LFJ6 1-71)
